Experimental data published in US7201167B2, “Method and composition for the treatment of lung surfactant deficiency or dysfunction” (Aerogen, Inc., priority 2004, dated 2007).

Test: aerosol delivery with simulated infant breathing pattern during nCPAP (drug collected on filter, HPLC)
Conditions: PDDS nebulizer in respiratory circuit (FIG. 7b), 0.5 mL of 0.5% albuterol sulfate
Description: FIGS. 7a and 7b are diagrams of nCPAP systems 100 and 200 that may be used for measuring aerosol delivery with a simulated infant breathing pattern during nasal continuous positive airway pressure ([…] systems 100 and 200 comprise breath simulators 101 and 201, consisting of adapters with orifices representing infant size nasal prongs 102 and 202 ([…]=3) connected to absolute filters 103 and 203, attached to reciprocating pump animal ventilators 104 and 204 (Harvard Apparatus) to form a nCPAP system. Lung simulators 100 and 200 may be set to infant ventilatory parameters (VT 10 ml, respiratory rate 40 breaths per minute). A constant oxygen flow of 10 L/min from ventilators 104 and 204 may be used to generate a CPAP of 5 cm H2O regulated by threshold resistors 105 and 205. In both systems, a liquid medicament (0.5 mL of 0.5% albuterol sulfate) may be aerosolized with a nebulizer 106 and 206 placed in a circuit of the nCPAP system. Drug may be collected on filters 103 and 104 placed distal to the nasal prongs 102 and 202, and the collected drug may be assayed using High Pressure Liquid Chromatography (HPLC). […] The efficiency of the nCPAP system may then be measured by expressing the amount of drug collected on the filter as a percentage of the drug dose placed in the nebulizer. […]

## albuterol sulfate
Continuous generation of aerosol, mean ± standard deviation
  deposition of the medicament dose placed in the nebulizer (drug collected on filter distal to nasal prongs): 26±9%
Intermittent generation of aerosol (interrupted during exhalation)
  deposition of the medicament dose placed in the nebulizer (drug collected on filter distal to nasal prongs): 40+9%
